In publication PMC7819943, “Rice protein-binding microarrays: a tool to detect cis-acting elements near promoter regions in rice”:
Some of the results follow.

Target: T1, OsSMF1 (Oryza sativa, UniProt Q6ZLB0 1-436)
T1 sequence: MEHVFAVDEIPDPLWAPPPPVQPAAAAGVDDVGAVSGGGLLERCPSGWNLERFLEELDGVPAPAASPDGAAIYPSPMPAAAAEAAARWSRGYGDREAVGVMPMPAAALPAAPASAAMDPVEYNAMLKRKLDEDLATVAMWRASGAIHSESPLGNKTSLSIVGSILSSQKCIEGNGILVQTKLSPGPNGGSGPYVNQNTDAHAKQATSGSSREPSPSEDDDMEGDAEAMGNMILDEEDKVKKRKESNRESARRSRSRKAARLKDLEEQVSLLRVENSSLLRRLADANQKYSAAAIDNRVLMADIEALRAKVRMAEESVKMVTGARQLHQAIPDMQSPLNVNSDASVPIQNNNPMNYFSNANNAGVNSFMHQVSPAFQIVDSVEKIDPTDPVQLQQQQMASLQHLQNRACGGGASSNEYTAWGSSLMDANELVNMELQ
Assay: protein-binding microarray (RPBM); PBS, 2% BSA, 51.3 ng/ul salmon testes DNA, 50 uM zinc acetate, 200 nM TF, 25 C, 1 h; high values mean tight binding
Conditions: protein: recombinant; tags: N-terminal polyhistidine and DsRed monomer fusion (pET32a); chain copies: 2; label: CyDye5-dUTP incorporated in the synthesized complementary strand; 3' TTTTT single-stranded linker to array surface; dsDNA, one strand shown
Procedure, shortened: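 Transcription factors, each fused N-terminally to a polyhistidine tag and DsRed, were expressed in E. coli BL21-CodonPlus and purified on Ni–NTA. A custom Agilent array was made double-stranded by primer extension with Cy5-dUTP and blocked with 2% BSA. It was incubated with 200 nM protein in PBS, 2% BSA, salmon testes DNA and 50 µM zinc acetate at 25 °C for 1 h, then washed. The binding signal is per-feature fluorescence intensity (arbitrary units) read on an Axon 4000B scanner.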

Sequence	binding signal
TTTTGTTCAGTTATTCTTCCTCGTGAGGTGATGTCCTTTTCGGAGTCACCTAGTGCAG	3480 fluorescence intensity (a.u.)
TTTAGGGTGTTTGGTTGTAGTCACAGTTGTGGCAAGATTCCGGAGTCACCTAGTGCAG	3580 fluorescence intensity (a.u.)
CACCGGGTGATCGGTCTGTCACTGCAACGTGGAGCCCATACGGAGTCACCTAGTGCAG	7270 fluorescence intensity (a.u.)
CGGATGAGACACTTCATAGTATAGTGAATTTGGACATGCTCGGAGTCACCTAGTGCAG	4180 fluorescence intensity (a.u.)
ATTATCATCGATCTTCTTGGGGAGGAAGCCTACCTTTGCCCGGAGTCACCTAGTGCAG	21000 fluorescence intensity (a.u.)
GGGGTGGCGATGGAGGTTGGCACCGTTGCCGTGGCAGACCCGGAGTCACCTAGTGCAG	4370 fluorescence intensity (a.u.)
ACACATAGAGATAGTATACGTGTATGTTTATAGGAGTAAACGGAGTCACCTAGTGCAG	3460 fluorescence intensity (a.u.)
TACGAGGAGGCCACGTGGCGAGTCACCTGGCCCAGCTGTCCGGAGTCACCTAGTGCAG	21400 fluorescence intensity (a.u.)
CTACTGCCAAGATGACGACAACTAATTATTATCCTCGCAACGGAGTCACCTAGTGCAG	4480 fluorescence intensity (a.u.)
TGACTTGGGGTGGTGCTTAGTATGTCATGATATACCAGCACGGAGTCACCTAGTGCAG	3970 fluorescence intensity (a.u.)
TGCTACAGAGCTTAGGGATGCTGACGGTCTCATCCACGCTCGGAGTCACCTAGTGCAG	29700 fluorescence intensity (a.u.)
AGAACGGCTTGGATGGGTGGTAGCTGAGCTGTAGTCAGACCGGAGTCACCTAGTGCAG	3430 fluorescence intensity (a.u.)
CCTTAGCGTTCACACCTGTTCCTTTCCCGCGCTTCGGATTCGGAGTCACCTAGTGCAG	3140 fluorescence intensity (a.u.)
GTTATTATGCAAACTATGTGGTTTAGACTGTAGAGATTGCCGGAGTCACCTAGTGCAG	19100 fluorescence intensity (a.u.)
GTATCCACTCCAGCAACTCCCATAGCCTGGACACGTCAGTCGGAGTCACCTAGTGCAG	11500 fluorescence intensity (a.u.)
GTTCGTCATGAAATAATAATGAAAAGACACTTTGTTCACACGGAGTCACCTAGTGCAG	18100 fluorescence intensity (a.u.)
GTGCATCGTGTGTGTGTTTGTTGTTAACGCGTCCGTCGCACGGAGTCACCTAGTGCAG	4310 fluorescence intensity (a.u.)
AGCTAGCTATAATAAATCCGCACGTGCTTGTCTTCTCCTCCGGAGTCACCTAGTGCAG	3230 fluorescence intensity (a.u.)
GACAGCGAGGTCACCATTTGTCGTGGCTGGGGAGGGACAACGGAGTCACCTAGTGCAG	3810 fluorescence intensity (a.u.)
GCGCGAGGCTACCCCGACCCCGACGTGGTCTCCTCCCACCCGGAGTCACCTAGTGCAG	3690 fluorescence intensity (a.u.)
ACCGTCCCCGCCATCCGCTATTGCCACGCCGGCACCGTTCCGGAGTCACCTAGTGCAG	8420 fluorescence intensity (a.u.)
ATATAAATCATGAATAAGTTGTTGAGTTTGAAAATGTAAACGGAGTCACCTAGTGCAG	7110 fluorescence intensity (a.u.)
GGCTGGCCAGCGCGGTTGCTGACGACTGGAGGAGCCTCGCCGGAGTCACCTAGTGCAG	4880 fluorescence intensity (a.u.)
GGATTAATTGTTAGTACACGCTTGTGTGGCTTTGACGCATCGGAGTCACCTAGTGCAG	4700 fluorescence intensity (a.u.)
TCGCGCTGTACACCGGGCCGACGATAAGCCCACTGATCCACGGAGTCACCTAGTGCAG	4790 fluorescence intensity (a.u.)
ATTACTCATAGTCACTATAAATCGATAGGTATTATCCATGCGGAGTCACCTAGTGCAG	3470 fluorescence intensity (a.u.)
CGCGACGACGACTAGTTTATTTTGCACCACGTACGCACACCGGAGTCACCTAGTGCAG	5160 fluorescence intensity (a.u.)

Two entries from above, in markdown.

| Sequence | binding signal |
| --- | --- |
| GTTCGTCATGAAATAATAATGAAAAGACACTTTGTTCACACGGAGTCACCTAGTGCAG | 18100 fluorescence intensity (a.u.) |
| GTGCATCGTGTGTGTGTTTGTTGTTAACGCGTCCGTCGCACGGAGTCACCTAGTGCAG | 4310 fluorescence intensity (a.u.) |

(list continues)

Sequence	binding signal
CCCACCACCCGCCCCGCTCGCCGACGCGGCGGCCATGGCGCGGAGTCACCTAGTGCAG	4000 fluorescence intensity (a.u.)
GTTGATTTGGTTCCACGCATCGCACGCAGCGTCCCGAGAGCGGAGTCACCTAGTGCAG	3590 fluorescence intensity (a.u.)
TCTCTCCATTTGACACGTACACGAATACCCCATCGTGCATCGGAGTCACCTAGTGCAG	23200 fluorescence intensity (a.u.)
TGATGAAGGGGAAGAGATTATACACGTTGGTGGCTAGAGGCGGAGTCACCTAGTGCAG	3470 fluorescence intensity (a.u.)
CTACACGACGACTGACGGCGACGTCAGTTCAGTTTAGTTTCGGAGTCACCTAGTGCAG	3660 fluorescence intensity (a.u.)
GGGTGATTTGTTGCAACGGCGCGTGTGGTGGTGCGTGTGGCGGAGTCACCTAGTGCAG	3390 fluorescence intensity (a.u.)
GCACCATCCCCGGTGATGCCCCACCACGTCCTCGACTCCCCGGAGTCACCTAGTGCAG	5180 fluorescence intensity (a.u.)
ATCGTCTCACTGTCTCACCGATCGAGCTAGCTCTCGTCGGCGGAGTCACCTAGTGCAG	3720 fluorescence intensity (a.u.)
ACCGGCTCACTTATGCGCGCGCGGCGCTGAGGTGGCCGCACGGAGTCACCTAGTGCAG	5200 fluorescence intensity (a.u.)
CCCACCCGCGCTTCTTCGCCACCGCCTGACCTCCACCCTGCGGAGTCACCTAGTGCAG	3210 fluorescence intensity (a.u.)
CTTGTCGTGTCGTGTCGTGTCCTCACGTGCCGTGCCGCCCCGGAGTCACCTAGTGCAG	4600 fluorescence intensity (a.u.)
CGGCATTATATACTAAAGAAAATGGAGGGAGTAGGAATCACGGAGTCACCTAGTGCAG	28700 fluorescence intensity (a.u.)
CACCCAACCTGCTGACTCATCATGTGGCACTAGCTTCTCTCGGAGTCACCTAGTGCAG	16000 fluorescence intensity (a.u.)
GCTTTTCCGGTGCCGCCGTGCGCCGCAATTCCGCAAACACCGGAGTCACCTAGTGCAG	3430 fluorescence intensity (a.u.)
ACGTCCACGAGTCCATGTCATGACACACCCCAAGTTGCTGCGGAGTCACCTAGTGCAG	5510 fluorescence intensity (a.u.)
AGCCGAGTAGCAGTGACGCCCGCACTATTGGCCTGATCAGCGGAGTCACCTAGTGCAG	3240 fluorescence intensity (a.u.)
ATAAAGTGGTTCTTTACACGTGTGACGATAAGACGTGAGTCGGAGTCACCTAGTGCAG	6920 fluorescence intensity (a.u.)
CCGCTGTACTATACAAAGGATCGGACCAGGTAGCTGACTGCGGAGTCACCTAGTGCAG	5890 fluorescence intensity (a.u.)
CCCCGTGGCGGTGGCGGAGGTGACGTCGTACTCCTGCTGCCGGAGTCACCTAGTGCAG	8170 fluorescence intensity (a.u.)
CTGCCTGCTCCGCCCGCGTGCCCGTCTTGGCCCCGTCACTCGGAGTCACCTAGTGCAG	4100 fluorescence intensity (a.u.)
CTTATACACGTTGTTTCATTCCCAAGTCATGCATGAATAACGGAGTCACCTAGTGCAG	4530 fluorescence intensity (a.u.)
ATTTCTCGACGCAACGCGACACGACGTATACGTCACGACCCGGAGTCACCTAGTGCAG	6900 fluorescence intensity (a.u.)
CCTAGCCCATCTCTCATCCAAGCTAAGTTTGACATGCCCGCGGAGTCACCTAGTGCAG	3300 fluorescence intensity (a.u.)
CTAATATGGATAGATTGAAACATCAAGGACTAAACTGAGCCGGAGTCACCTAGTGCAG	3460 fluorescence intensity (a.u.)
TCTATTCATCCAAATTATGACACATGTACGCTCCATATTTCGGAGTCACCTAGTGCAG	3270 fluorescence intensity (a.u.)
TTTCGACATCGTCTGCCACGTCAGCTTGCCCCTCCATTAGCGGAGTCACCTAGTGCAG	26500 fluorescence intensity (a.u.)
TTTAAATAACATGACGTGTAAAGGAAACATTGCACTAGTCCGGAGTCACCTAGTGCAG	13300 fluorescence intensity (a.u.)
